This assay has as its target T1, Siz1, Gal4BD fusion (S. cerevisiae) (UniProt Q04195).
T1 sequence: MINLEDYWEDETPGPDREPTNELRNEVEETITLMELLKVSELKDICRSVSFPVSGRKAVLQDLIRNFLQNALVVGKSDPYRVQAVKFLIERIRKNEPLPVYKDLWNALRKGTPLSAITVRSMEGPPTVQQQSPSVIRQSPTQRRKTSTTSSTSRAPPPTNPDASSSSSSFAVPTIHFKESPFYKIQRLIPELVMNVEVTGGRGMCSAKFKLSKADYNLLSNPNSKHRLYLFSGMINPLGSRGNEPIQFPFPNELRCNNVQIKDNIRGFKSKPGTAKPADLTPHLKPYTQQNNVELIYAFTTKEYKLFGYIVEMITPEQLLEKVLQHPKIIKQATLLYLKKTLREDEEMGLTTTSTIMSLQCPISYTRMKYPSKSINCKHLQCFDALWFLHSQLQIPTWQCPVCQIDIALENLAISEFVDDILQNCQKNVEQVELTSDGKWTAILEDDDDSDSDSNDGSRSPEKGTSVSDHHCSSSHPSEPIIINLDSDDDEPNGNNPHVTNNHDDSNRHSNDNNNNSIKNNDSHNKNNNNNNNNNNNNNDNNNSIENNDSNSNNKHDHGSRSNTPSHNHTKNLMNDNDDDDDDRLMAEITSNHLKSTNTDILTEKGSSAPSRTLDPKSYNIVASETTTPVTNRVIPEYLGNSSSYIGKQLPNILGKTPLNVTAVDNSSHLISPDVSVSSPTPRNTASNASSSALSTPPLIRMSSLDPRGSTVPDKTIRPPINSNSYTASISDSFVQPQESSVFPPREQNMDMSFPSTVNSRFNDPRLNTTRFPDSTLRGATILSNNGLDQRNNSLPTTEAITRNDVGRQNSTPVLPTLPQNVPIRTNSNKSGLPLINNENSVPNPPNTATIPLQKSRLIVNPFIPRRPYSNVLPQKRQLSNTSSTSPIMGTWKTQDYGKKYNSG
In words: two-hybrid; Gal4BD fusions (pGBT9: Srs2, Siz1, Rad30) and Gal4AD fusions (pGAD424: Pol30 and mutants) cotransformed into PJ69-4a; growth on SD-Leu-Trp-His with or without 3AT, 30°C, 2 to 6 days.

Sequences of proteins named here, by UniProt entry; tags and fusion partners are left off.
UniProt P15873: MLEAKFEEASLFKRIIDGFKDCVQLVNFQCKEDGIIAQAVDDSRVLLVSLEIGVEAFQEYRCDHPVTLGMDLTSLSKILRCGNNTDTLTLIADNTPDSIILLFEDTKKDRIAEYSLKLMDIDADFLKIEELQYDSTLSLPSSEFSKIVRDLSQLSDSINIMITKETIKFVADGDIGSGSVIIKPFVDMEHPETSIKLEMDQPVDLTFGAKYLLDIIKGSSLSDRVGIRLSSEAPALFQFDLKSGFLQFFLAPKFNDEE

No constants are given. Whether binding was seen depends on the method and setting. Sequences can lack the tags named with a protein.

The source of these data is paper PMC10127746, “Genetic Dissection of Budding Yeast PCNA Mutations Responsible for the Regulated Recruitment of Srs2 Helicase” (mBio, 2023).

For the substance “Pol30 (PCNA), Gal4AD fusion (from UniProt P15873 1-258)”, the binding result is recorded as “no binding”.
